Test results reported in article PMC11077084, “Biochemical characterization of the meiosis-essential yet evolutionarily divergent topoisomerase VIB-like protein MTOPVIB from Arabidopsis thaliana” (Nucleic Acids Research, 2024).
A weaker result is weaker than the reference pair of the same experiment. Tags and fusion partners may be left off the protein sequences shown. For part of these data: Construct, isoform or probe ends are uncertain for at least one entry.

Key:
[1] = molecular target: T1, MTOPVIB (Arabidopsis thaliana) (UniProt Q5Q0E6); assay: EMSA; details: minimal binding at 2 uM MTOPVIB, 80 nM DNA; 23 C, 30 min, 0.8% agarose-TBE at 4 C (6% PAGE for the competition); recombinant protein; residues 1-473; single-stranded DNA
T1 sequence (looked up): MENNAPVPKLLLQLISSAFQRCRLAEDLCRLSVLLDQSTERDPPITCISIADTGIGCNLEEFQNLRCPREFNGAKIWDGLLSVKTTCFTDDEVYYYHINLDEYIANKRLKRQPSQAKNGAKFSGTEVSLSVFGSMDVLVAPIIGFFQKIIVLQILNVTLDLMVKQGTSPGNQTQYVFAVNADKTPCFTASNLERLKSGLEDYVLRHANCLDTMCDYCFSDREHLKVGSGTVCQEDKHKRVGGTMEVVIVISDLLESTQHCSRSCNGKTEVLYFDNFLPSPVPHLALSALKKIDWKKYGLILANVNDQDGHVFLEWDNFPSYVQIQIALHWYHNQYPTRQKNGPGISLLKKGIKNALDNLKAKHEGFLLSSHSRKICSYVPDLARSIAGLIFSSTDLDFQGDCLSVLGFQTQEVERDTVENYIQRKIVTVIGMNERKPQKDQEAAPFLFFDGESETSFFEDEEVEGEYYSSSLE

[2] = molecular target: T1, MTOPVIB (Arabidopsis thaliana); assay: competition with a labelled probe; details: co-incubated with 80 bp dsDNA; 23 C, 30 min, 0.8% agarose-TBE at 4 C (6% PAGE for the competition); recombinant protein; residues 1-473; single-stranded DNA

Sequence | binding result [1] | binding result [2]
TAAATAAGATAAGGATAATACAAAATAAGTAAATGAATAAACAGAGAAAATAAAGTAAAGGATATAAAAAATGAACATAA [80 mer bottom-stranded ssDNA (Oligo 2)] | binds more weakly | –
TTATGTTCATTTTTTATATCCTTTACTTTATTTTCTCTGTTTATTCATTTACTTATTTTGTATTATCCTTATCTTATTTA [80 mer top-stranded ssDNA (Oligo 1)] | binds more weakly | binds more weakly
